{
  "sequences": {"note": "Chains of the proteins cited; added tags and fusions are not shown. Lines headed by an entry give the natural chain unless they say otherwise; changes in a name come on top. Residues count along the entry.", "UniProt P35968": "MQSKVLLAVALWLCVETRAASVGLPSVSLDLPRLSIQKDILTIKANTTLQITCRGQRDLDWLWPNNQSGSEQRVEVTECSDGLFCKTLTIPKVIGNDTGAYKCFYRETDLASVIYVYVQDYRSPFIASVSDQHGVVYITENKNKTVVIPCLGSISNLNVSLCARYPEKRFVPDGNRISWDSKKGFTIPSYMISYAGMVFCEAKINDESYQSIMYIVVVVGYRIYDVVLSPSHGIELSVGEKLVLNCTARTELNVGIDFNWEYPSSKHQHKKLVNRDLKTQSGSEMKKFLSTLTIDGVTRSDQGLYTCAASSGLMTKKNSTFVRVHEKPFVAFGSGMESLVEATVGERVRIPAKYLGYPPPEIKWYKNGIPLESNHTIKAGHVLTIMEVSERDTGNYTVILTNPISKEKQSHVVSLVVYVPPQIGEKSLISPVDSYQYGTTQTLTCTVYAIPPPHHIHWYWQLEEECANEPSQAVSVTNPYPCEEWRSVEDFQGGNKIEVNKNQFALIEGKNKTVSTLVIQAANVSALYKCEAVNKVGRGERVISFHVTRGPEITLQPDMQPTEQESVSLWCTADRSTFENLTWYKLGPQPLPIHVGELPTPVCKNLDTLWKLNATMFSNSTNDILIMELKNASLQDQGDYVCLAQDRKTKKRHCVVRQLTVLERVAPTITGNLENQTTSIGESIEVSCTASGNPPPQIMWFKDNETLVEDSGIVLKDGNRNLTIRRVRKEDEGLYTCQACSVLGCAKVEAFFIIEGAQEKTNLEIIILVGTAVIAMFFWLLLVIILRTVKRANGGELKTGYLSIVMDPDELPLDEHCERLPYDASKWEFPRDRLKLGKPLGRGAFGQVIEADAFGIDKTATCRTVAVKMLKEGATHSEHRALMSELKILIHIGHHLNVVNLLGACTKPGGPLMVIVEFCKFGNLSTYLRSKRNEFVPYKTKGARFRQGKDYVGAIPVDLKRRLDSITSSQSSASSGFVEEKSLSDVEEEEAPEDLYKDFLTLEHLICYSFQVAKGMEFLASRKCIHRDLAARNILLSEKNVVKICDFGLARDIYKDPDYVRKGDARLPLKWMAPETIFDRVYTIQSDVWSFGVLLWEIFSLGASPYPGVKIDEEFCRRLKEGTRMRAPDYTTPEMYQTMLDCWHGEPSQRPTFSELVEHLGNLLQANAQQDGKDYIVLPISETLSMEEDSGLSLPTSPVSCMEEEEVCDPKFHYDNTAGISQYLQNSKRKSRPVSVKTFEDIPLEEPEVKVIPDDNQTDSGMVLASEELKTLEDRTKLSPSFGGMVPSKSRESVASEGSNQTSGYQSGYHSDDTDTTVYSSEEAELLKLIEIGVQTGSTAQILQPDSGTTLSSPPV", "KDR on transiently KDR-transfected 293H cells": "residues 20-1356 of P35968", "human KDR-Fc fusion (R&D Systems #357-KD-050)": "residues 20-764 of P35968"},
  "source": "patent EP2014310A2",
  "about": "(Dyax Corporation, dated 2009)",
  "key": {"[1]": {"target": "KDR on transiently KDR-transfected 293H cells (human) (UniProt P35968)", "assay": "125I-VEGF competition at 10, 0.3 and 0.03 µM"}, "[2]": {"target": "human KDR-Fc fusion (R&D Systems #357-KD-050) (human) (UniProt P35968)", "assay": "phage binding screen on KDR-Fc; class legend in paragraph 246"}, "[3]": {"target": "KDR on transiently KDR-transfected 293H cells (human) (UniProt P35968)", "assay": "125I-VEGF competition at 300, 30, 3 and 0.3 nM"}},
  "note": "Results are given in words; binding and its absence hold for the method and conditions named. Some binding calls cover weakened binding; strength is not graded here.",
  "data": [
    {"binder": "AQDWYYDEILSMADQLRHAFLSGG", "note": "[P13-D (…; SEQ ID NO:376)]", "values": [
      {"measurement": "binding", "setting": "[1]", "result": "binds"}
    ]},
    {"binder": "WYWCQYHGVCPQS", "note": "[phage isolate …]", "values": [
      {"measurement": "binding", "setting": "[2]", "result": "binds"}
    ]},
    {"binder": "ERVTTCWPGEYGGVECYSVAY", "note": "[SEQ ID NO:504 (monomeric peptide)]", "values": [
      {"measurement": "binding", "setting": "[3]", "result": "binds"}
    ]}
  ]
}
